Here are results for 38 sequences from publication PMC7862700.

Protein sequences, listed by entry. Tags and fused reporters are not part of them. Lines headed by an entry give the natural chain unless they say otherwise; changes in a name come on top.
UniProt Q9Y603: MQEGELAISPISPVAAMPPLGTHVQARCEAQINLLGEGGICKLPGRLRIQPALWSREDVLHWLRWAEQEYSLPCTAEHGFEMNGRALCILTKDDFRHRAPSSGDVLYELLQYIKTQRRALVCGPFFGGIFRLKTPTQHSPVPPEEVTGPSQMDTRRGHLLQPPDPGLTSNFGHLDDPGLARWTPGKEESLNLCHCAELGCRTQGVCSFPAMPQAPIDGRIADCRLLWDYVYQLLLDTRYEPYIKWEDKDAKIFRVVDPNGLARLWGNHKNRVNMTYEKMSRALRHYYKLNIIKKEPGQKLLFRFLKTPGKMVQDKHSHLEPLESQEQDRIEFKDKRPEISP
UniProt P41212: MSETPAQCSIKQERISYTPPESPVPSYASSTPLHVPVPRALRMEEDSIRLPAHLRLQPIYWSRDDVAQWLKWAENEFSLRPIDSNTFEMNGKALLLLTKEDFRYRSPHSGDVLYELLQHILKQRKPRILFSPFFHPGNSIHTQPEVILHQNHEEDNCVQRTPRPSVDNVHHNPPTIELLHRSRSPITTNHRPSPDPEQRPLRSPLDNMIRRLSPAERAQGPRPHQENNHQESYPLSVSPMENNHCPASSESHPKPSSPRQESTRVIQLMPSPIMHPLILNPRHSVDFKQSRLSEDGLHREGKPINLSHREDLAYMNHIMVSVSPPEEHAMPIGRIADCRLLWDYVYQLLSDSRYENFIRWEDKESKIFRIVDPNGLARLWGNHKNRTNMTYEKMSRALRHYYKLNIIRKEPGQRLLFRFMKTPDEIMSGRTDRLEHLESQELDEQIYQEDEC

The entries are a selection whose mix differs from that of the whole data set. At the low end of the ranking the order means little.

In the first assay the target is ETV7 (UniProt Q9Y603). Description: DAPPL (digital affinity profiling via proximity ligation, sequencing). As to conditions: 10 mM Tris-HCl pH 7.5, 50 mM NaCl, 1 mM DTT, 4% glycerol, room temperature, 30 min; GST-TFs on glutathione beads, 16-mer random dsDNA library, 0.1% …; high values mean tight binding; double strand, one strand shown; scale: fold enrichment (6-mer frequency, TF over GST control).
The sequence GGTAAG returned a binding signal of 0.787.

As for GGTCGA, the binding signal was determined as 0.809.

On to AGCAAG, for which the binding signal came to 0.982.

Sequence CGTGTA came in with a binding signal of 0.691.

The sequence CGGTAG displayed a binding signal of 0.763.

AGCGGG had a binding signal of 0.545.

For the sequence CTGTCG, the binding signal is 0.662.

Turning to GGCGAT, the binding signal was found to be 0.771.

CGTAAG gave a binding signal of 0.741.

Turning to GAGGGG, the binding signal was 0.614.

As to CGTGCA, the binding signal stood at 0.675.

In turn, GTCGCC returned a binding signal of 0.792.

GCGCCA came in with a binding signal of 0.74.

The sequence GGGACT came in with a binding signal of 0.731.

As to CAGTAC, the binding signal was determined as 0.847.

Take ACACGT: the binding signal came to 0.789.

With TGCAGG, the binding signal is 0.909.

The sequence AGTGAG came in with a binding signal of 0.308.

For CGGGTG, the binding signal turned out to be 0.821.

CGGGCG gave a binding signal of 0.527.

On to TTCGTG, for which the binding signal was determined as 0.989.

The sequence TGTGGG registered a binding signal of 0.843.

For CAAGTC, the binding signal came out at 0.851.

With GGGGCA, the binding signal turned out to be 0.722.

The sequence ATGAGA showed a binding signal of 0.826.

Take TACCGT: the binding signal stood at 0.752.

As for CTGTGA, the binding signal stood at 0.546.

As for CGGTGG, the binding signal is 0.609.

Regarding GTCGCT, the binding signal worked out at 0.742.

GGCGCG came in with a binding signal of 0.819.

On to GGAAAG, for which the binding signal was found to be 1.06.

Regarding GACGCC, the binding signal came to 0.898.

For the sequence ACGGTG, the binding signal worked out at 0.477.

On to TAGACG, for which the binding signal was 0.692.

As for TGTCGT, the binding signal was found to be 0.947.

For the sequence GTCTGA, the binding signal worked out at 0.779.

GGCGTA returned a binding signal of 0.72.

Turning to GTTAGA, the binding signal came to 0.7.

A further assay deals with ETV6 (UniProt P41212). The assay is described as above. As to conditions: 10 mM Tris-HCl pH 7.5, 50 mM NaCl, 1 mM DTT, 4% glycerol, room temperature, 30 min; GST-TFs on glutathione beads, 16-mer random dsDNA library, 0.1% …; high values mean tight binding; double strand, one strand shown; scale: fold enrichment (6-mer frequency, TF over GST control).
Consider GGTAAG, for which the binding signal is 0.727.

For the sequence GGTCGA, the binding signal turned out to be 0.715.

AGCAAG registered a binding signal of 0.818.

For the sequence CGTGTA, the binding signal is 0.647.

CGGTAG: the binding signal was found to be 0.725.

As for AGCGGG, the binding signal was determined as 0.469.

As for CTGTCG, the binding signal stood at 0.585.

Sequence GGCGAT yielded a binding signal of 0.81.

In the case of CGTAAG, the binding signal turned out to be 0.744.

For the sequence GAGGGG, the binding signal was determined as 0.488.

Regarding CGTGCA, the binding signal was determined as 0.71.

GTCGCC: the binding signal was found to be 0.846.

Turning to GCGCCA, the binding signal is 0.845.

Regarding GGGACT, the binding signal came out at 0.67.

CAGTAC displayed a binding signal of 0.839.

Sequence ACACGT registered a binding signal of 0.811.

Turning to TGCAGG, the binding signal was determined as 0.967.

In turn, AGTGAG had a binding signal of 0.278.

For the sequence CGGGTG, the binding signal stood at 0.614.

For CGGGCG, the binding signal came out at 0.401.

On to TTCGTG, for which the binding signal is 0.938.

The sequence TGTGGG showed a binding signal of 0.778.

As to CAAGTC, the binding signal is 0.844.

For the sequence GGGGCA, the binding signal stood at 0.673.

ATGAGA: the binding signal was found to be 0.886.

Regarding TACCGT, the binding signal came to 0.623.

Sequence CTGTGA gave a binding signal of 0.449.

CGGTGG: the binding signal turned out to be 0.602.

GTCGCT displayed a binding signal of 0.793.

Sequence GGCGCG returned a binding signal of 0.675.

In turn, GGAAAG came in with a binding signal of 1.06.

The sequence GACGCC showed a binding signal of 0.842.

ACGGTG displayed a binding signal of 0.534.

TAGACG yielded a binding signal of 0.759.

For the sequence TGTCGT, the binding signal amounted to 0.847.

For GTCTGA, the binding signal came to 0.782.

As to GGCGTA, the binding signal was 0.719.

For GTTAGA, the binding signal turned out to be 0.726.
